Patent US4127528A (priority 1977, dated 1978)

Assay: general procedure: Boc solid-phase peptide synthesis; Tert-butyloxycarbonyl-O-benzyl-threonine-O-CH2-resin; dicyclohexylcarbodiimide
Settings: whole synthesis, scale 0.5 mmole

L-tyrosyl-D-alanyl-glycyl-L-phenylalanyl-L-methionyl-L-threonyl-L-seryl-L- glutamyl-L-lysyl-L-servl-L-glutaminyl-L-threonyl-L-prolyl-L-leucyl-L-valyl- L-threonine
isolated mass: 328 mg
